In the supplement of paper PMC10849652:
Some of the results follow.

Protein sequences, listed by entry. Tags and fused reporters are not part of them. Lines headed by an entry give the natural chain unless they say otherwise; changes in a name come on top.
UniProt Q9Y3C7: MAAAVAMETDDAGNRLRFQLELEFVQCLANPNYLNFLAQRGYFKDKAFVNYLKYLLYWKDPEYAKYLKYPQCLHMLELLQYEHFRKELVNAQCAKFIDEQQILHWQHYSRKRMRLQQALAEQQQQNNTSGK
UniProt Q8NHS3: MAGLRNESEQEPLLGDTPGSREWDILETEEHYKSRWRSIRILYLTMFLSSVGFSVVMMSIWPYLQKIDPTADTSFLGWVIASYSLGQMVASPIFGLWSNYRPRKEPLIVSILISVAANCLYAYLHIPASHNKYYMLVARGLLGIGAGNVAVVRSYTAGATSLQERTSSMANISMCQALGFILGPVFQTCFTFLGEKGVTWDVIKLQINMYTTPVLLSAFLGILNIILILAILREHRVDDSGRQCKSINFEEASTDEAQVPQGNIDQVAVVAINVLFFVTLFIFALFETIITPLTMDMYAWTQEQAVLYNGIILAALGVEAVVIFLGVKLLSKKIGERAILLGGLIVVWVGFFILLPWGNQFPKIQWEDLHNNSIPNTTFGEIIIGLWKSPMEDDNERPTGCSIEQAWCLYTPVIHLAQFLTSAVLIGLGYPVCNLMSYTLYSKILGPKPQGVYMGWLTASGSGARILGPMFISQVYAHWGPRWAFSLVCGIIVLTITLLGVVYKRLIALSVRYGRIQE
UniProt Q9Y4C4: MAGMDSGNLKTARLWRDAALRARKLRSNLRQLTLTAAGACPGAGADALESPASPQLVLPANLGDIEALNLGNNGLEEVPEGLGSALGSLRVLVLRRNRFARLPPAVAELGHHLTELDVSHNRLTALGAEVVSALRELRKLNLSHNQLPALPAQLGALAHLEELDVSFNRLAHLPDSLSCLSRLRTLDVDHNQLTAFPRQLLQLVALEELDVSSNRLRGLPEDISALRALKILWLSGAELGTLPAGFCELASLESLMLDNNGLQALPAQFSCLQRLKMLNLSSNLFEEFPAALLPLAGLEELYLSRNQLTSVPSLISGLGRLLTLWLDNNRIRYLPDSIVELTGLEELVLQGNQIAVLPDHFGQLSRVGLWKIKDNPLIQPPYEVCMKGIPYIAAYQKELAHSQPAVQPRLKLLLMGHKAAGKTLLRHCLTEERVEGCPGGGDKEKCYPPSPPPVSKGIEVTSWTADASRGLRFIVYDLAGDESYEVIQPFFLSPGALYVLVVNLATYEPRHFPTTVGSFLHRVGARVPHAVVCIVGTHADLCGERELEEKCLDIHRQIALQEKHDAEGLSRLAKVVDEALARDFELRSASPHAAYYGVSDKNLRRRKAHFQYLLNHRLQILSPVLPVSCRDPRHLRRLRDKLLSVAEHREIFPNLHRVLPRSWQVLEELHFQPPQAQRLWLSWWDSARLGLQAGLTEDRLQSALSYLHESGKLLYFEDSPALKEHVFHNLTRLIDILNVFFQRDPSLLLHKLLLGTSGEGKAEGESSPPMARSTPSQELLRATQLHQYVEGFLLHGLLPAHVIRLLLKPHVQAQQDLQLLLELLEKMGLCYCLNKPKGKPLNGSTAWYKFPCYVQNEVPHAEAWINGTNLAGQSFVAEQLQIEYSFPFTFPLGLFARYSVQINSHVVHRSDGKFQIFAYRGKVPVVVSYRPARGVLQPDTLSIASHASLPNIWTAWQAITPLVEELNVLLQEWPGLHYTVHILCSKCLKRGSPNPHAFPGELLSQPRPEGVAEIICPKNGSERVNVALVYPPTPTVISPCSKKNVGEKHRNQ
UniProt O14770: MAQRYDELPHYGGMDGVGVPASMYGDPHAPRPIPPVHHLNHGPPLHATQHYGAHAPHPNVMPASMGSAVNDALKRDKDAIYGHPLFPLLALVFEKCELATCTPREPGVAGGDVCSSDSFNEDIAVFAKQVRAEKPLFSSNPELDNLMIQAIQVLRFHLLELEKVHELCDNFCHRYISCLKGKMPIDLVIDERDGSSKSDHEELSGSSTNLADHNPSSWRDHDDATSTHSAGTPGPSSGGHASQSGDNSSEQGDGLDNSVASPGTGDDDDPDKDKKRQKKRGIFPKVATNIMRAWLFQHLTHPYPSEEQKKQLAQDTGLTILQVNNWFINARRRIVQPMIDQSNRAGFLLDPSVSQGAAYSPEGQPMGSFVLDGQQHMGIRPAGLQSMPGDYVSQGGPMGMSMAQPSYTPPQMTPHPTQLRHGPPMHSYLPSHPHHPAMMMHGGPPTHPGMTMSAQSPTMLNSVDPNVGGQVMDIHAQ
UniProt Q8NBP5: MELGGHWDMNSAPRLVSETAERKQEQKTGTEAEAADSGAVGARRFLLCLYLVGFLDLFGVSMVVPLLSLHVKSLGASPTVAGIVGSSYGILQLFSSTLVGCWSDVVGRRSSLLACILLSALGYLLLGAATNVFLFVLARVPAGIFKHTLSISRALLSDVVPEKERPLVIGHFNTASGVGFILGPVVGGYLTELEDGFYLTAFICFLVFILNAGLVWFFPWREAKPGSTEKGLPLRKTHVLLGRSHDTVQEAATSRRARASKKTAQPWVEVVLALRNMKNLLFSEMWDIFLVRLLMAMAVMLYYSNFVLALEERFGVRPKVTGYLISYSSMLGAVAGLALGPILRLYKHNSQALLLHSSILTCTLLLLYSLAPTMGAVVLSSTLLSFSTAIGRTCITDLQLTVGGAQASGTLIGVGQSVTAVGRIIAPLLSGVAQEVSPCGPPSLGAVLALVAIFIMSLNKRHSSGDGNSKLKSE
UniProt Q9NWA0: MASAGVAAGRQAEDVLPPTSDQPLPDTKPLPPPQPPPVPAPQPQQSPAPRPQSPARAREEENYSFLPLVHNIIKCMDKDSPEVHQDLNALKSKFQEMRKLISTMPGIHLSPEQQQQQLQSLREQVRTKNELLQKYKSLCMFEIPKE
UniProt Q14680: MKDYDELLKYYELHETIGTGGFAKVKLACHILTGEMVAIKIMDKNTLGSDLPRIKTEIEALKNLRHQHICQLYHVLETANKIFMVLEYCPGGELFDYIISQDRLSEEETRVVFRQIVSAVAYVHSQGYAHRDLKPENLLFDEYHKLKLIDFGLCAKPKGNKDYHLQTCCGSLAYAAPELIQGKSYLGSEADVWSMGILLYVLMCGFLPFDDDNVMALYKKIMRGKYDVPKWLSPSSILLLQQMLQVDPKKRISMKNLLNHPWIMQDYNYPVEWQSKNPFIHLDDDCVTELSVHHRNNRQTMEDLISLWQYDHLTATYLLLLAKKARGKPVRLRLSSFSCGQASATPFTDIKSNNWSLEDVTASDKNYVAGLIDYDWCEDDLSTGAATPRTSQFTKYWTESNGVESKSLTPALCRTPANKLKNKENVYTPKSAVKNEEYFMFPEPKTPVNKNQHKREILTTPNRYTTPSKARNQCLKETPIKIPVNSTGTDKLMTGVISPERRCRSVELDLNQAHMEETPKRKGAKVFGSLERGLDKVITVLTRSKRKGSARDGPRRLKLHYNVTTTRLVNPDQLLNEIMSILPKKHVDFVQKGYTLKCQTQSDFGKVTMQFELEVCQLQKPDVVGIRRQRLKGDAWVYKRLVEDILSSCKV
UniProt O60291: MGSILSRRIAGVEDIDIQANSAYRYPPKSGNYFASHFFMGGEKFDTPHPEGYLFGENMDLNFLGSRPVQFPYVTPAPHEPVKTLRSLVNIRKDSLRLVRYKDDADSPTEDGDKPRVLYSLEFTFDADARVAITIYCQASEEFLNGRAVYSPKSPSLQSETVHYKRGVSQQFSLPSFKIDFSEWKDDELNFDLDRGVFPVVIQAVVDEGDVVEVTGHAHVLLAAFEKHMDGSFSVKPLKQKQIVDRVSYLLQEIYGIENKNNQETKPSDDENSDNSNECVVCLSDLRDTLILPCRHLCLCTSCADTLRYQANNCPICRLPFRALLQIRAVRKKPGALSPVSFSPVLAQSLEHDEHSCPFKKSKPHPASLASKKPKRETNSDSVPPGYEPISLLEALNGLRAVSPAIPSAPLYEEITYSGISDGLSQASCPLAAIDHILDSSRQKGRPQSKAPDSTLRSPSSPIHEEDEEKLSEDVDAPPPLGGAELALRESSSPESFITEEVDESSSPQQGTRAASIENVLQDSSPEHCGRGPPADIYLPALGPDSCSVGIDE
UniProt Q9NS73: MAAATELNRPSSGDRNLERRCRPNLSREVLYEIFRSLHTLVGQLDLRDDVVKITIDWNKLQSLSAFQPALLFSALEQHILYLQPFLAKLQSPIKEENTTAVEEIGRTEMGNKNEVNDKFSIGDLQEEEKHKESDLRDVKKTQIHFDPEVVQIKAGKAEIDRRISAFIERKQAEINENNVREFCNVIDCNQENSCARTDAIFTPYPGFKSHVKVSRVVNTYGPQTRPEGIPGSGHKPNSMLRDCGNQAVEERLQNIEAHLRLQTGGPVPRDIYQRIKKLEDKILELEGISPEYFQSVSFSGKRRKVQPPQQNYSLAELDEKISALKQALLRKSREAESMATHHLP
UniProt O43462: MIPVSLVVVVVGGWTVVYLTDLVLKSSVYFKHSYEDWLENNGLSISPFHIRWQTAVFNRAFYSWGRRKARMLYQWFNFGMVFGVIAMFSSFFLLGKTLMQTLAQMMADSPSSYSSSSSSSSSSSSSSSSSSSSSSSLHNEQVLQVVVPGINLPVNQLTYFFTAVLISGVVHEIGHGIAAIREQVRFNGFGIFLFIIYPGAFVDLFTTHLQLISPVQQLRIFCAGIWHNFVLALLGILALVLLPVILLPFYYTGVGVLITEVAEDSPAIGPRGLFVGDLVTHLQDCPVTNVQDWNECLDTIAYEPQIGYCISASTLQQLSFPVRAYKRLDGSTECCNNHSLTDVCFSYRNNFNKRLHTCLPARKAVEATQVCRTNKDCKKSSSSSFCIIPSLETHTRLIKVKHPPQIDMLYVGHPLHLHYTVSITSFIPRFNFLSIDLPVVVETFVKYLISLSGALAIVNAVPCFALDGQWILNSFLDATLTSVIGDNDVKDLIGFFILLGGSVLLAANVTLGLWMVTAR
UniProt Q9P086: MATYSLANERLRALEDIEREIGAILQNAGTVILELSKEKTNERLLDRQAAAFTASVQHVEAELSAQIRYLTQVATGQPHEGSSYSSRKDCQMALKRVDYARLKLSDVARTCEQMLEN
UniProt Q5VZF2: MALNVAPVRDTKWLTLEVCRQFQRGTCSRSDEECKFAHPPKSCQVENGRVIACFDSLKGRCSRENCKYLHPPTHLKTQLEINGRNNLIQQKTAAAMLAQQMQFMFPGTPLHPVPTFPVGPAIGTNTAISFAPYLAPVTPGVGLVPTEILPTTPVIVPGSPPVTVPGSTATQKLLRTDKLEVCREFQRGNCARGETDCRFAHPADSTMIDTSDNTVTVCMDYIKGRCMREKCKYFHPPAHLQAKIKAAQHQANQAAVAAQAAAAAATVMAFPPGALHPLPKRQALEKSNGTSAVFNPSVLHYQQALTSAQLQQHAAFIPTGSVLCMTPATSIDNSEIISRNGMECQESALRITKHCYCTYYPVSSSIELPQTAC
UniProt Q9BUT9: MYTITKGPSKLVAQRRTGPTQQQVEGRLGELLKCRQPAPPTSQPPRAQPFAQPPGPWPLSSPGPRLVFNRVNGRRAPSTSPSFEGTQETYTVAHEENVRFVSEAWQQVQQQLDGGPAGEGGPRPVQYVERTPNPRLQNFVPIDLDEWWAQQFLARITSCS
UniProt Q06413, whole entry, looked up: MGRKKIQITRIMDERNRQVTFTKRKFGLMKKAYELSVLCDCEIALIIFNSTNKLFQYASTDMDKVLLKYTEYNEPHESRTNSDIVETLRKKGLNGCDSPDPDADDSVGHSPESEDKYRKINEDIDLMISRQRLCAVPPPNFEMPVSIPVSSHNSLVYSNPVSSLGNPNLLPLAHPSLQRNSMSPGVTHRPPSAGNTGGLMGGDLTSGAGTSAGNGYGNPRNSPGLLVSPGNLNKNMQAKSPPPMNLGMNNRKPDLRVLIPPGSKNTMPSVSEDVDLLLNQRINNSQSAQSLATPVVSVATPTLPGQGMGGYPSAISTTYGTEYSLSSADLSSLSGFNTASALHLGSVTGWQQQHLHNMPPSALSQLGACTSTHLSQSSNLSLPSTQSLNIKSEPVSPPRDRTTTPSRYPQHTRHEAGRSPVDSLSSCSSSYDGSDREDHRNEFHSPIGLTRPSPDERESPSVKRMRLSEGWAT
UniProt Q9H1U4: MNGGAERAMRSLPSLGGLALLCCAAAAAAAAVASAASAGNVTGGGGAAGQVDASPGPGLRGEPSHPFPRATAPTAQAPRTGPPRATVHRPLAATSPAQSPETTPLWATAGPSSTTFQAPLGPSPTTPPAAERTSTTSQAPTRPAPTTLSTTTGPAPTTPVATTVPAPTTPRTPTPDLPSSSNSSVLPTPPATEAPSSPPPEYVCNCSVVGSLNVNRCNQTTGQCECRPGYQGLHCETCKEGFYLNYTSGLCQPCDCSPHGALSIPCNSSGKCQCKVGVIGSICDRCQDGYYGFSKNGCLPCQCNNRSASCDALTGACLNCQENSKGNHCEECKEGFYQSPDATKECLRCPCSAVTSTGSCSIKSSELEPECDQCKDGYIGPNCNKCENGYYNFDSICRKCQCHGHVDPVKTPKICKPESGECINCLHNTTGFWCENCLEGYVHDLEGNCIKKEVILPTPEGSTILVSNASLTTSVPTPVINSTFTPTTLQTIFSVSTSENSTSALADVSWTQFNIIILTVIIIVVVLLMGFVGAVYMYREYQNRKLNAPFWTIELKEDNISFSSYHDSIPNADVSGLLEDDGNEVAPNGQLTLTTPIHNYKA

Columns and labels:
Assay in all cases: log2 fold change, soluble protein after heating vs DMSO (PISA); higher = thermal stabilisation; K562 cells, 10 uM, 30 min; active = over 0.2 and 3.5 SD of the protein, either way, in both replicates (recomputed)
[1] = compound: NC1(c2ccc(-c3nc4ccn5c(=O)[nH]nc5c4cc3-c3ccccc3)cc2)CCC1
Method in brief: (§1)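 Values are thermal stability changes relative to control samples and are taken from duplicates. They are stated as log2 fold changes. Before quantification by TMTpro 16plex LC-MS/MS with equalised channel sums, K562 cells at 2×10^6 cells/mL were treated with 10 μM compound for 30 min, heated in aliquots for 3 min across 48°C-58°C, pooled, extracted in PBS with 0.5% NP-40 at 4°C, and centrifuged at 21,000xg for 90 min to give the soluble supernatant.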

[2] = compound: NCC(=O)Nc1ccc(-n2nc(C(F)(F)F)cc2-c2ccc3c(ccc4ccccc43)c2)cc1
Method in brief: as §1

citarinostat = compound: O=C(CCCCCCNC(=O)c1cnc(N(c2ccccc2)c2ccccc2Cl)nc1)NO [citarinostat]
Method in brief: as §1

silmitasertib = compound: O=C(O)c1ccc2c(c1)nc(Nc1cccc(Cl)c1)c1ccncc12 [silmitasertib]
Method in brief: as §1

[3] = compound: c1cc(OCCN2CCCCC2)cc(-c2n[nH]c3ccc(-c4nnc[nH]4)cc23)c1
Method in brief: as §1

[4] = compound: NC(=O)Nc1cc(-c2cccc(F)c2)sc1C(=O)N[C@H]1CCCNC1
Method in brief: as §1

[5] = compound: NC(=O)c1cnc(N[C@@H]2CCCC[C@@H]2N)nc1Nc1cccc(-n2nccn2)c1
Method in brief: as §1

entinostat = compound: Nc1ccccc1NC(=O)c1ccc(CNC(=O)OCc2cccnc2)cc1 [entinostat]
Method in brief: as §1

vorinostat = compound: O=C(CCCCCCC(=O)Nc1ccccc1)NO [vorinostat]
Method in brief: as §1

[6] = compound: O=C1NC(=O)C(c2cnc3ccccn23)=C1c1cn2c3c(cc(F)cc13)CN(C(=O)N1CCCCC1)CC2
Method in brief: as §1

Measured: log2 fold change

MED31 (UniProt Q9Y3C7)
inactive: [1] -0.021 | [2] 0.083 | citarinostat 0.049 | silmitasertib 0.03 | [3] -0.169

MFSD12 isoform 3 (UniProt Q6NUT3)
inactive: [4] 0.073 | [5] -0.159 | entinostat -0.067 | vorinostat 0.11 | citarinostat 0.1 | [3] -0.162

MFSD8 (UniProt Q8NHS3)
inactive: [5] 0.02 | [1] -0.115 | [2] -0.076 | vorinostat -0.008 | citarinostat -0.003 | silmitasertib 0.069 | [6] -0.007 | [3] -0.129

MFHAS1 (UniProt Q9Y4C4)
inactive: [5] 0.013 | [1] 0.014 | [2] 0.024 | vorinostat 0.004 | silmitasertib 0.029

MEIS2 (UniProt O14770)
inactive: [5] -0.048 | vorinostat 0.019

MED6 (UniProt O75586)
inactive: [4] -0.092 | [1] -0.186 | [2] 0.208 | entinostat -0.012 | vorinostat 0.129 | citarinostat -0.001 | silmitasertib 0.156 | [6] 0.128 | [3] 0.137

MFAP3 (UniProt P55082)
inactive: [4] 0.043 | [5] -0.04 | [2] -0.09 | entinostat -0.052 | [6] -0.243

MED19 (UniProt A0JLT2)
inactive: [4] 0.085 | [1] 0.207 | [2] 0.151 | entinostat -0.103 | vorinostat 0.394 | citarinostat -0.04 | silmitasertib -0.02 | [6] 0.276 | [3] -0.053

MEGF8 (UniProt Q7Z7M0)
inactive: [5] -0.248 | citarinostat 0.034 | [3] 0.103

MFSD9 (UniProt Q8NBP5)
inactive: [1] 0.04 | silmitasertib -0.028

MED9 (UniProt Q9NWA0)
inactive: [1] 0.031 | vorinostat -0.235 | citarinostat -0.169 | silmitasertib 0.051 | [3] -0.111

MASP1 isoform 2 (UniProt P48740)
inactive: [4] 0.308 | entinostat -0.222 | vorinostat 0.09

MAU2 (UniProt Q9Y6X3)
inactive: [4] 0.337 | [1] -0.225 | [2] -0.057 | entinostat 0.243 | vorinostat -0.012 | silmitasertib 0.09

MELK (UniProt Q14680)
inactive: [4] -0.384 | [5] -0.128 | entinostat -0.052 | vorinostat 0.062 | citarinostat -0.001 | [6] -0.016 | [3] -0.366

MGRN1 isoform 2 (UniProt O60291)
inactive: [5] 0.11 | vorinostat -0.024

MATK isoform 2 (UniProt P42679)
inactive: [2] -0.068

MCOLN3 (UniProt Q8TDD5)
inactive: [1] -0.254 | vorinostat 0 | citarinostat 0.095 | silmitasertib 0.083 | [3] 0.159

MCOLN1 (UniProt Q9GZU1)
inactive: [4] 0.122 | [1] -0.066 | entinostat -0.015 | vorinostat -0.104 | citarinostat -0.054 | silmitasertib 0.14 | [6] 0.273 | [3] 0.006

MED13L (UniProt Q71F56)
inactive: [2] 0.056 | [6] -0.036

MBIP (UniProt Q9NS73)
inactive: [5] 0.013 | [1] -0.002 | [2] -0.083 | silmitasertib -0.069

METTL15 (UniProt A6NJ78)
inactive: [5] -0.111 | [6] -0.279

MBNL1 isoform 5 (UniProt Q9NR56)
inactive: [4] -0.059 | [1] 0.02 | entinostat 0.02 | citarinostat 0.15 | silmitasertib 0.033 | [6] 0.025 | [3] 0.041

METTL9 (UniProt Q9H1A3)
inactive: [5] 0.079 | [1] -0.132 | [2] -0.029 | vorinostat -0.032 | silmitasertib 0.104

2 consecutive entries from above, quoted:
MED9 (UniProt Q9NWA0)
inactive: [1] 0.031 | vorinostat -0.235 | citarinostat -0.169 | silmitasertib 0.051 | [3] -0.111

MASP1 isoform 2 (UniProt P48740)
inactive: [4] 0.308 | entinostat -0.222 | vorinostat 0.09

More results.

MBTPS2 (UniProt O43462)
inactive: [2] -0.166 | vorinostat -0.035 | [6] -0.246

MED11 (UniProt Q9P086)
inactive: [1] 0.116 | silmitasertib -0.084

MBNL2 (UniProt Q5VZF2)
inactive: [5] 0.111 | vorinostat 0.055

MCRIP2 (UniProt Q9BUT9)
inactive: [4] -0.006 | entinostat 0.015 | vorinostat 0.009 | citarinostat 0.067 | [6] -0.029 | [3] -0.05

MED21 (UniProt Q13503)
inactive: [5] -0.098 | [1] 0.034 | vorinostat -0.2 | citarinostat -0.014 | silmitasertib 0.021 | [3] -0.021

MEF2C isoform 2 (UniProt Q06413)
inactive: citarinostat 0.031 | [6] 0.207 | [3] 0.008

MEGF9 (UniProt Q9H1U4)
inactive: [4] -0.054 | entinostat -0.065 | vorinostat -0.109

MEX3C (UniProt Q5U5Q3)
inactive: [1] 0.013 | silmitasertib 0.113

MED29 (UniProt Q9NX70)
inactive: [5] 0.05 | [1] 0.029 | silmitasertib 0.133

METTL26 (UniProt Q96S19)
inactive: [1] -0.284 | citarinostat -0.01 | silmitasertib 0.027 | [3] 0.043
